Assay results: PMC4751364, “Mitotic Activation of a Novel Histone Deacetylase 3-Linker Histone H1.3 Protein Complex by Protein Kinase CK2*” (The Journal of Biological Chemistry, 2015)
These are yes or no findings as the source states them, for the method shown. Binding seen in cells or lysates may run through a third protein. For some of these results: Binding can be weak; no strength is given.

Tests used:
Assay in all cases: co-IP; endogenous proteins of HeLa S3 whole cell extracts (0.5% Nonidet P-40 in PBS), unsynchronised or synchronised to S, early G2, late G2 phase or mitosis (double thymidine block, nocodazole); antibody 1-2 ug/ml overnight at 4 C, protein A/G- or L-agarose, washed three times with radioimmune precipitation assay buffer; Western blot; non-immune IgG/IgM as control
[1] = target: T1, HDAC11 (human (endogenous in HeLa S3)) (UniProt Q96DB2)
T1 sequence: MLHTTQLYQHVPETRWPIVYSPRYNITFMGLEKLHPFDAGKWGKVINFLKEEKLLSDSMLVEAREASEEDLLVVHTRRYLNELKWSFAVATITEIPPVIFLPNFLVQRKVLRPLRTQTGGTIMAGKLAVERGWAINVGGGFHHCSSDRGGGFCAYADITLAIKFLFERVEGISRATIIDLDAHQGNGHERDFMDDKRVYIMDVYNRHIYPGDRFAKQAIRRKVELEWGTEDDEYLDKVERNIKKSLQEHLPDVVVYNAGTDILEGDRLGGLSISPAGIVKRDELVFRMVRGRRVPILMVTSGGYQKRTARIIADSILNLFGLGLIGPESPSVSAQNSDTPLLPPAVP

[2] = target: T2, HDAC10 (human (endogenous in HeLa S3)) (UniProt Q969S8)
T2 sequence: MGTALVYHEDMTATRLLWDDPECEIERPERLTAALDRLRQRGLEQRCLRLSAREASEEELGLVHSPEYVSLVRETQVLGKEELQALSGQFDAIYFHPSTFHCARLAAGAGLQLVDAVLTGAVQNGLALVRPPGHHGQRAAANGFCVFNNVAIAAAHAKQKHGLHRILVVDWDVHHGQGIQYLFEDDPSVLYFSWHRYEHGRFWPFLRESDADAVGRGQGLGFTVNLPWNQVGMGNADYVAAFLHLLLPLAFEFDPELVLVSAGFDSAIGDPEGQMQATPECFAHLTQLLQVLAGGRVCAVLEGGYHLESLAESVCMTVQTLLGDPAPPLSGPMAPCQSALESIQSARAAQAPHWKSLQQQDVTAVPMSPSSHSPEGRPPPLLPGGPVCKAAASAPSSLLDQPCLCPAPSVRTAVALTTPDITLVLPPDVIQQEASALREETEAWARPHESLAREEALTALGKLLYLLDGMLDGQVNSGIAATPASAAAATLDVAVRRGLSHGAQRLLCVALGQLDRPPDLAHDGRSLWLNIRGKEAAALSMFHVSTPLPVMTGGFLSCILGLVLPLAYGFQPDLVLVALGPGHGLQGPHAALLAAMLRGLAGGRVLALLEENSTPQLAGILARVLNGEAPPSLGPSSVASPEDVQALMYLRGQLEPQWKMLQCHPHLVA

[3] = target: T3, HDAC8 (human (endogenous in HeLa S3)) (UniProt Q9BY41)
T3 sequence: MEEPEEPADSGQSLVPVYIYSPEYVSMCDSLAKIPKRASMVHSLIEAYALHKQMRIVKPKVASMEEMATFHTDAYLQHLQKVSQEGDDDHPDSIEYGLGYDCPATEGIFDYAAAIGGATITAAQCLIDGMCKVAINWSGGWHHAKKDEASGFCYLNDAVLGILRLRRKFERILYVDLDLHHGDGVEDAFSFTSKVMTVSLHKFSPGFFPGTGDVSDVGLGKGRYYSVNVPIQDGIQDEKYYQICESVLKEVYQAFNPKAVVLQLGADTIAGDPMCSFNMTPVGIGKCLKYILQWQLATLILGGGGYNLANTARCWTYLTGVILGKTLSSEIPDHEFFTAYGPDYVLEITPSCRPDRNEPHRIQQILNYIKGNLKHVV

[4] = target: T4, HDAC7 (human (endogenous in HeLa S3)) (UniProt Q8WUI4)
T4 sequence: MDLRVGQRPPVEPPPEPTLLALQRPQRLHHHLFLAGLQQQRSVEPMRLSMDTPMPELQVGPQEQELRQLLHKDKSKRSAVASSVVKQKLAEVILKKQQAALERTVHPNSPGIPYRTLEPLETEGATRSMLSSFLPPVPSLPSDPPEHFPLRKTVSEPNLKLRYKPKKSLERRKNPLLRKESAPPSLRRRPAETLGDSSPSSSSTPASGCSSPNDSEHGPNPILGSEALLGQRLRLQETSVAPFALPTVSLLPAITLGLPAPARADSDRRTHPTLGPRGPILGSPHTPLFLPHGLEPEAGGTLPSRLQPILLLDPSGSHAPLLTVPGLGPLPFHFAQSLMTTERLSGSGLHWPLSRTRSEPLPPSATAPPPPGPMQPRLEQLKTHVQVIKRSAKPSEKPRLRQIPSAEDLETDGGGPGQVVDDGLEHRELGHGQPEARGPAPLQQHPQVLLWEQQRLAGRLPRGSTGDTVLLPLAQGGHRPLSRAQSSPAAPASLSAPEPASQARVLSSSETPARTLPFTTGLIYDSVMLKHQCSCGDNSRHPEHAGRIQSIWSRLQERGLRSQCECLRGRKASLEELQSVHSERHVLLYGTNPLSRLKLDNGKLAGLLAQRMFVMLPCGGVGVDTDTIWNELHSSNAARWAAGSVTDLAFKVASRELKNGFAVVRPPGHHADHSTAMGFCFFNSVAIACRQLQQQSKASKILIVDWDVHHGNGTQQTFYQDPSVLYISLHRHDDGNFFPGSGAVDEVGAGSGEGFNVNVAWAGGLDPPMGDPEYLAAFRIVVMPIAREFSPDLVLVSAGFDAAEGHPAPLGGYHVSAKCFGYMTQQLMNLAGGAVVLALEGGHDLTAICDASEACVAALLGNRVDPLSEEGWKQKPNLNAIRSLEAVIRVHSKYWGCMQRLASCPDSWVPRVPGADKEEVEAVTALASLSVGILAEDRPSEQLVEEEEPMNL

linker histone H1 (human (endogenous in HeLa S3))
binding [1]: no binding
binding [2]: no binding
binding [3]: binds
binding [4]: no binding
